Consider 1 substance from article PMC12310523.

Sequences of proteins named here, by UniProt entry; tags and fusion partners are left off. A change or cut given only in a name is not applied to a line headed by its entry.
UniProt Q14527: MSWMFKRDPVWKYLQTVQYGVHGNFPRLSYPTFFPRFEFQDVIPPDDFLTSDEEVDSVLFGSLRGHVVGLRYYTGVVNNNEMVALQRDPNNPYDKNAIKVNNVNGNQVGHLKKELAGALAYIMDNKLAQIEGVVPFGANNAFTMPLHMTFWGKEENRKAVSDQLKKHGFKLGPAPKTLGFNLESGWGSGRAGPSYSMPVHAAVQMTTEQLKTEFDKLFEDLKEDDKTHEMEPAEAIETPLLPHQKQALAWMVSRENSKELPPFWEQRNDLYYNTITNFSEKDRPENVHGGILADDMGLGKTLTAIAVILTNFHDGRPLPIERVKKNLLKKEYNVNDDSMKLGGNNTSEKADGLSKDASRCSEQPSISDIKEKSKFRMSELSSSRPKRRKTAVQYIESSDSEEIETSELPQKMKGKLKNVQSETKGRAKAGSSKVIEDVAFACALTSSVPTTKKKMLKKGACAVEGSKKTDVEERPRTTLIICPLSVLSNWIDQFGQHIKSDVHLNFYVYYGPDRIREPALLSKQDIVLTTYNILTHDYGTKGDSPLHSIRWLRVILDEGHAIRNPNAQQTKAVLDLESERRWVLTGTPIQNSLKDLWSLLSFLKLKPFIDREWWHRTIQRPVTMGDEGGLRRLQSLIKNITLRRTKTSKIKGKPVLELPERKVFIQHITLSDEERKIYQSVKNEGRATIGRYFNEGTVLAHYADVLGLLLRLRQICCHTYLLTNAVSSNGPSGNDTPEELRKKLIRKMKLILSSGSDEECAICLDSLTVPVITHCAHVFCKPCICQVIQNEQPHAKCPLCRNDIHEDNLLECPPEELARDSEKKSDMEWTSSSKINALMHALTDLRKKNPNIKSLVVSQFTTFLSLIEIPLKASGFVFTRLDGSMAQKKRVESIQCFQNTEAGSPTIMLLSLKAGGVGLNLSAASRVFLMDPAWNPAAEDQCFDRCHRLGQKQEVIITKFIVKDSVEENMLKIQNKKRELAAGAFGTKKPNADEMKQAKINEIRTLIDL

Results are given in words; binding and its absence hold for the method and conditions named. Binding can be weak; no strength is given. Where a sequence is shown, tags or fusion partners need not be part of it.

This test deals with T1, StrepII-tagged and SUMO-tagged SMARCA3 (residues 26–39) (UniProt Q14527).
T1 sequence: PRLSYPTFFPRFEF
The test can be described thus: pull-down; StrepII-tagged proteins held on StrepTactin Sepharose; purified ANXA2(S100A) added for 1 h; binding buffer 50 mM HEPES, 200 mM NaCl, pH 7.5; eluted with 50 mM biotin; SDS–PAGE, Coomassie; both purified.

On to ANXA2–S100A complex, for which the binding entry is “binds”.
